The source of these data is the supplement of paper PMC10849652.

Amino acid sequences for entries named in this document (tags omitted). A change or cut given only in a name is not applied to a line headed by its entry.
UniProt Q9H2J4: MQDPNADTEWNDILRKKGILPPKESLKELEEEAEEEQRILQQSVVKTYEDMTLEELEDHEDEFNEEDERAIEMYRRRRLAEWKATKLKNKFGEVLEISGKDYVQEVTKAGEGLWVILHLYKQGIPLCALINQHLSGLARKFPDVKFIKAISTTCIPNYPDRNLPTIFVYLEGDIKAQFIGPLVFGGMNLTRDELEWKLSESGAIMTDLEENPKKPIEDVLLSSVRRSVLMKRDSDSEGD
UniProt O95453: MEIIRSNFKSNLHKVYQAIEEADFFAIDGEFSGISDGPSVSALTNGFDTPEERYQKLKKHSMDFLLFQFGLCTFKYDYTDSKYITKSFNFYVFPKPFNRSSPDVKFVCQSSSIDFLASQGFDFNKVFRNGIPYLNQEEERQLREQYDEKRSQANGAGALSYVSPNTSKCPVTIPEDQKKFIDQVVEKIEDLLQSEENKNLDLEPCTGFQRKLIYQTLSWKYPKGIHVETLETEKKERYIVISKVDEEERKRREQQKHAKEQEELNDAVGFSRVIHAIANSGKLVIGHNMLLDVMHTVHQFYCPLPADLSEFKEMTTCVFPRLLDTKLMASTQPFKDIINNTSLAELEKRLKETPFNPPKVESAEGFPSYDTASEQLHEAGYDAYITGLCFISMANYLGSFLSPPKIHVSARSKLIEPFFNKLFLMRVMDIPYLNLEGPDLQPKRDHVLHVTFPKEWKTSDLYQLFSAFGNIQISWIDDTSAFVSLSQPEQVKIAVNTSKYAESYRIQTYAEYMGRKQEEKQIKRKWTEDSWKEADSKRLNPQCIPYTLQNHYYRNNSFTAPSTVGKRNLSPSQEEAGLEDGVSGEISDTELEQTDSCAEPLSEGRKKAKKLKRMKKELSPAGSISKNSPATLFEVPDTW
UniProt P08237: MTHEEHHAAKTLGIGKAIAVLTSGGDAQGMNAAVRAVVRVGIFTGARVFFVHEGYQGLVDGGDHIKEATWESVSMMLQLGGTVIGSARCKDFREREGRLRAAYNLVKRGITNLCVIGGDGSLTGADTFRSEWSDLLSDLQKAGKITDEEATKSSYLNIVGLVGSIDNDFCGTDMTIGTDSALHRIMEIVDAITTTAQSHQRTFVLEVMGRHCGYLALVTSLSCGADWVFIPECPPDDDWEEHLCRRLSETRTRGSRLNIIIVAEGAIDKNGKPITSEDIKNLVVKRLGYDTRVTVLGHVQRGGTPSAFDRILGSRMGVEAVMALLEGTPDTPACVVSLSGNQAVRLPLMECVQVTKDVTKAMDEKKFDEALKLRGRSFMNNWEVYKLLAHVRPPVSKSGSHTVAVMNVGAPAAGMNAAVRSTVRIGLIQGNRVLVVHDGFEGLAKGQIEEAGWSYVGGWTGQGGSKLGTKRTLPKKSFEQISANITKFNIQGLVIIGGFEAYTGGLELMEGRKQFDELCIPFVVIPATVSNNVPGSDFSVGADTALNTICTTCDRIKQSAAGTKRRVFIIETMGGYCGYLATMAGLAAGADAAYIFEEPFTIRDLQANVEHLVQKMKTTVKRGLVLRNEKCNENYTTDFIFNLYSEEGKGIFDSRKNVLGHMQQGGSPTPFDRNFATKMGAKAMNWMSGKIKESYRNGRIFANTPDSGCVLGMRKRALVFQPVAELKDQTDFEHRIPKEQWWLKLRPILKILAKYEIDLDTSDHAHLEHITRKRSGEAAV
UniProt Q8WUM4: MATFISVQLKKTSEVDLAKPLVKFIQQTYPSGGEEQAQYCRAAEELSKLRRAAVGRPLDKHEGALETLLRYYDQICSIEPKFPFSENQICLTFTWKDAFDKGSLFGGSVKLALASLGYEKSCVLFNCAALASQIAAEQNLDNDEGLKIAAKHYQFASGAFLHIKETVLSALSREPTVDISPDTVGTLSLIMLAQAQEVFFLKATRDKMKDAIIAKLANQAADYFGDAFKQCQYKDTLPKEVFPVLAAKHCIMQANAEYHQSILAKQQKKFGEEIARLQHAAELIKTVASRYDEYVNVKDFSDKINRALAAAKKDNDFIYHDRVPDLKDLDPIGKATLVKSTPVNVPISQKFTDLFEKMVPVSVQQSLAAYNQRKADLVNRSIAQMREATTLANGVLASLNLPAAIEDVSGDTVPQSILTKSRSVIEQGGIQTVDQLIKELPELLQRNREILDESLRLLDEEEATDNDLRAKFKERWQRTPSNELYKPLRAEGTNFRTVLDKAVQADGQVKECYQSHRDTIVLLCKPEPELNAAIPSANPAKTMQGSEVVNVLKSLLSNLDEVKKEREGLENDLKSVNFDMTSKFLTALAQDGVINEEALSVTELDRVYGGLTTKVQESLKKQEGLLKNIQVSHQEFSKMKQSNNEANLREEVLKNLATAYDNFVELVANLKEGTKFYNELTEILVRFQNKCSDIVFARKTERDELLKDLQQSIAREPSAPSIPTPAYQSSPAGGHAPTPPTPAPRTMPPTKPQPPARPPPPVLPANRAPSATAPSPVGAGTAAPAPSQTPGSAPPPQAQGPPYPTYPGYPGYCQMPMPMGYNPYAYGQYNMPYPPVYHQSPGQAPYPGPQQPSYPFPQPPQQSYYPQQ
UniProt Q9NQP4, whole entry, looked up: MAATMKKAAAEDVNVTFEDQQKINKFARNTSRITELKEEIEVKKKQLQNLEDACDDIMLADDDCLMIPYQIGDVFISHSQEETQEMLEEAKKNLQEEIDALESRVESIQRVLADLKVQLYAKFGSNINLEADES
UniProt P13667: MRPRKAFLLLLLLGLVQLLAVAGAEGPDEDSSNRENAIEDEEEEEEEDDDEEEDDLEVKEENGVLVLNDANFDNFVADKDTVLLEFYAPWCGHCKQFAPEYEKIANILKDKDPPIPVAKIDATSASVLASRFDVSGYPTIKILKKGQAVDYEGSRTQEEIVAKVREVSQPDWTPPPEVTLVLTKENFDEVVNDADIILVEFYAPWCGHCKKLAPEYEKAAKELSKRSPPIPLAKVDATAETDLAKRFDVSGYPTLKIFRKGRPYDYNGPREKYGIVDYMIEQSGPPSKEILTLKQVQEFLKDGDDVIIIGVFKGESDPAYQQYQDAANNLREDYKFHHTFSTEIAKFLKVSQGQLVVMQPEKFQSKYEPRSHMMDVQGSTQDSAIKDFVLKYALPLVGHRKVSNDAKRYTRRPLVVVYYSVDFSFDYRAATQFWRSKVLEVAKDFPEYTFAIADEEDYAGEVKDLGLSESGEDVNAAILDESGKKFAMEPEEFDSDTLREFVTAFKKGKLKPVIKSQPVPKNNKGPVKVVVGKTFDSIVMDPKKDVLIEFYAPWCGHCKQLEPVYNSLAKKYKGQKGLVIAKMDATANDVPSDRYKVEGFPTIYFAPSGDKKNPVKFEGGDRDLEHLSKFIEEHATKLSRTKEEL
UniProt Q6L8Q7: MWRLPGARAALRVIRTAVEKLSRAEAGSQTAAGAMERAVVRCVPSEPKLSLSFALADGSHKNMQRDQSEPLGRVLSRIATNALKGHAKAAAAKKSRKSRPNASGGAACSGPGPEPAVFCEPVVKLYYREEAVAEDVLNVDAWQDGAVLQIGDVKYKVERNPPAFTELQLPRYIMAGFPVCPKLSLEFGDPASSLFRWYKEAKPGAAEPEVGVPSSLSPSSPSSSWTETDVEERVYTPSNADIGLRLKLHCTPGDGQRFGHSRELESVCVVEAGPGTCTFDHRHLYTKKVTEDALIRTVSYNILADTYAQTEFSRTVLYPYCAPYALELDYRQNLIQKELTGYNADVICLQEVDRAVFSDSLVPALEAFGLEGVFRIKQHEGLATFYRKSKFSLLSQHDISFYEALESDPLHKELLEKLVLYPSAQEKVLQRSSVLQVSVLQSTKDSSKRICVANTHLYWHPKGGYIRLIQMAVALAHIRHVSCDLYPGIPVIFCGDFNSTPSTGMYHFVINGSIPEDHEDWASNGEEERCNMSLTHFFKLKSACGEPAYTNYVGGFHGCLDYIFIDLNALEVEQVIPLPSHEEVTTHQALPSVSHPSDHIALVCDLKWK
UniProt Q99447: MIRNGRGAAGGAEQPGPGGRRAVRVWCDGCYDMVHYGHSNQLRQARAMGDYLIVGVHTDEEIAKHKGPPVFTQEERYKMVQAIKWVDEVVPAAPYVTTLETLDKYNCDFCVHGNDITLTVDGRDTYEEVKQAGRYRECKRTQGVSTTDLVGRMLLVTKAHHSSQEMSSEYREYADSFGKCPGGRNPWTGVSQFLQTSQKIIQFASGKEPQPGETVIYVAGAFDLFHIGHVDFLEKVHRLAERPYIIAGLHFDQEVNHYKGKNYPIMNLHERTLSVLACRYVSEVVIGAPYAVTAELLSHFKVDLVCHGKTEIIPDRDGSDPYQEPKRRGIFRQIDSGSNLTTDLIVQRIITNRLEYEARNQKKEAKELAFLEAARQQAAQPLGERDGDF
UniProt Q15366, whole entry, looked up: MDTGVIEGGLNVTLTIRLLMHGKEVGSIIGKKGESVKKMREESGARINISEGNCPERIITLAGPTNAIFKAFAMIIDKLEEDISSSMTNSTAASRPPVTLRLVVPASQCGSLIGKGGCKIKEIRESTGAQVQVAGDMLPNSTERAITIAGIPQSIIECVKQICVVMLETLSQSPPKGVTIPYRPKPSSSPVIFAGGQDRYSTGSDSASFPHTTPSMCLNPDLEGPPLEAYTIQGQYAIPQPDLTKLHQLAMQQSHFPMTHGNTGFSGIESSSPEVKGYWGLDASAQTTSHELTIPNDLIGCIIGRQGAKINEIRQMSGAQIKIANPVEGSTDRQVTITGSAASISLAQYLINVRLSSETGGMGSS
UniProt O15212, whole entry, looked up: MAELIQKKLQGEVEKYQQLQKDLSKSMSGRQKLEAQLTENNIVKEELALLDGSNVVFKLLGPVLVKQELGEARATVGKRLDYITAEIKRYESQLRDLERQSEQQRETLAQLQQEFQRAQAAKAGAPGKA
UniProt Q9UHV9, whole entry, looked up: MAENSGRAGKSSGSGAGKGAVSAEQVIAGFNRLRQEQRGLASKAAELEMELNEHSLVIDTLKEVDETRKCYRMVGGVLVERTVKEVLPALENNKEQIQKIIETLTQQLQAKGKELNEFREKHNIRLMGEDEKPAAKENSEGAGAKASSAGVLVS
UniProt Q6ZW49, whole entry, looked up: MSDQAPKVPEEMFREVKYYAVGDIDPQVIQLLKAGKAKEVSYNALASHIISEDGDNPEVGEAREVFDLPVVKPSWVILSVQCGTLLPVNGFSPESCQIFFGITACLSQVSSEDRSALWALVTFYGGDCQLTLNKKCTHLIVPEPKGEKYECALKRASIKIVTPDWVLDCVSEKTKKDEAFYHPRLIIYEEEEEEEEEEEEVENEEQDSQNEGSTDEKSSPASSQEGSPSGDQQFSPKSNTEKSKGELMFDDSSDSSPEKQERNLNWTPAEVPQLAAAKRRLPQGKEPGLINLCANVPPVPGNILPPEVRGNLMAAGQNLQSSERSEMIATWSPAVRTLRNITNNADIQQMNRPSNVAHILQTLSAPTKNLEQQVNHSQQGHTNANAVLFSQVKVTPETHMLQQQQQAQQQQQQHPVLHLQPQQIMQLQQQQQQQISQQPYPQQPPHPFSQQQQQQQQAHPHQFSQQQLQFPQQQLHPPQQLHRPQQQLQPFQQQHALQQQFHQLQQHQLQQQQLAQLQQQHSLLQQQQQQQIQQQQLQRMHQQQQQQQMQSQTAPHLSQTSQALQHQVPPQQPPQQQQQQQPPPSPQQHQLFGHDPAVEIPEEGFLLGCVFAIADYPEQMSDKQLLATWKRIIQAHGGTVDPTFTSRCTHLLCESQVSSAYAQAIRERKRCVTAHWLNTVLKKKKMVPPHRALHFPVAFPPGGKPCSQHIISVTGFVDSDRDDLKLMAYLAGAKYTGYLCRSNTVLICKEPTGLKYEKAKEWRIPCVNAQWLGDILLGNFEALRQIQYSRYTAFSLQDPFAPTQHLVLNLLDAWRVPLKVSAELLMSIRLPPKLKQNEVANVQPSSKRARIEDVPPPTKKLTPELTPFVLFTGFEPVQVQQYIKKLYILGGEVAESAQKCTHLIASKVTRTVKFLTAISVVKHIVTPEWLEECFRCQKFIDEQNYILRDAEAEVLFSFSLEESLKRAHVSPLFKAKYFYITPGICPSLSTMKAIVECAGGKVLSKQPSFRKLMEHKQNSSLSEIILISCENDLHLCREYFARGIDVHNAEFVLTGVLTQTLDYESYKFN
UniProt Q9NUG6, whole entry, looked up: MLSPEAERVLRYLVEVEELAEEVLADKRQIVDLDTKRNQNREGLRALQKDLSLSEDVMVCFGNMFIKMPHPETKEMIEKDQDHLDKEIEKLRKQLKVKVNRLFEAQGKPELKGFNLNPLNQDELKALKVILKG
UniProt O14737: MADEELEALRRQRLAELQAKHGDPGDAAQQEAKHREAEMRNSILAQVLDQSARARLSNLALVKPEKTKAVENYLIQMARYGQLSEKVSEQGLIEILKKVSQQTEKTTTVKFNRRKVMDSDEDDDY
UniProt Q99471, whole entry, looked up: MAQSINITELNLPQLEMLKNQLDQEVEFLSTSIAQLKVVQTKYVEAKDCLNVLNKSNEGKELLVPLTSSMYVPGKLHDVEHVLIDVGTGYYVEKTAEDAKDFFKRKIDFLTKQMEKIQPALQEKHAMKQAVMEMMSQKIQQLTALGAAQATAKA
UniProt Q15121, whole entry, looked up: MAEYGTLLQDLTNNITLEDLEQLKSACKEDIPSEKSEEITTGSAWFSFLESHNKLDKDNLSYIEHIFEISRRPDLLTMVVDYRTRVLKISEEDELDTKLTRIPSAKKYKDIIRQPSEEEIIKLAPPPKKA

The list shows a part of the results.

Compound in the assay: C[C@H](Nc1ncnc2nc[nH]c12)c1cc2cccc(Cl)c2c(=O)n1-c1ccccc1 [duvelisib]
Description: log2 fold change, soluble protein after heating vs DMSO (PISA); higher = thermal stabilisation; K562 lysate, 10 uM; active = over 0.2 and 3.5 SD of the protein, either way, in both replicates (recomputed). In outline: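 Log-two fold change in thermal stability relative to solvent controls is reported from duplicates. For each sample, crude K562 extract from dounce-homogenised pellets in PBS pH 7.4 with 1 mM MgCl2, at 1 mg/mL protein, was treated with 10 μM compound for 30 min. Aliquots heated for 3 min across 48°C-58°C were pooled, brought to 0.5% NP-40 at 4°C and cleared at 21,000xg for 90 min. The supernatant was quantified by TMTpro 16plex LC-MS/MS with channel sums equalised.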
Consider PDCL3 (UniProt Q9H2J4), for which the log2 fold change is inactive: 0.013.

On to PATL1 (UniProt Q86TB9), for which the log2 fold change is inactive: 0.024.

Regarding PDIA3 (UniProt H7BZJ3), the log2 fold change was inactive: 0.091.

For PARN (UniProt O95453), the log2 fold change was inactive: 0.016.

As to PEX5 isoform 4 (UniProt P50542), the log2 fold change is inactive: -0.041.

For the target PFKM isoform 3 (UniProt P08237), the log2 fold change is inactive: -0.046.

On to PCTP (UniProt Q9UKL6), for which the log2 fold change was inactive: -0.056.

PCBP3 (UniProt P57721): the log2 fold change was inactive: -0.014.

With PDCD6IP (UniProt Q8WUM4), the log2 fold change was inactive: 0.004.

Turning to PDCL (UniProt Q13371), the log2 fold change was inactive: -0.02.

Turning to PFDN4 (UniProt Q9NQP4), the log2 fold change is inactive: 0.017.

As to PCBP2 (UniProt H3BRU6), the log2 fold change is inactive: 0.028.

In the case of PDCD6IP isoform 2 (UniProt Q8WUM4), the log2 fold change was inactive: -0.009.

Take PDIA4 (UniProt P13667): the log2 fold change is inactive: -0.011.

On to PDE12 (UniProt Q6L8Q7), for which the log2 fold change is inactive: -0.015.

Take PCYT2 isoform 3 (UniProt Q99447): the log2 fold change is inactive: 0.027.

Take PDE2A (UniProt O00408): the log2 fold change was inactive: -0.042.

On to PCBP2 isoform 8 (UniProt Q15366), for which the log2 fold change is inactive: 0.04.

Consider PFDN6 (UniProt O15212), for which the log2 fold change was inactive: 0.017.

In the case of PFDN2 (UniProt Q9UHV9), the log2 fold change is inactive: 0.

Consider PDCD10 (UniProt Q9BUL8), for which the log2 fold change is inactive: -0.007.

Take PAXIP1 (UniProt Q6ZW49): the log2 fold change is inactive: 0.03.

PDRG1 (UniProt Q9NUG6): the log2 fold change was inactive: 0.002.

On to PFN1 (UniProt P07737), for which the log2 fold change was inactive: 0.009.

As for PDCD5 (UniProt O14737), the log2 fold change is inactive: -0.009.

For PAXBP1 (UniProt Q9Y5B6), the log2 fold change was inactive: -0.008.

As to PARP14 (UniProt Q460N5), the log2 fold change is inactive: -0.13.

PCBD1 (UniProt P61457): the log2 fold change was inactive: 0.046.

PFDN5 (UniProt Q99471): the log2 fold change is inactive: 0.018.

On to PCBP2 isoform 3 (UniProt Q15366), for which the log2 fold change is inactive: -0.015.

Take PDCD4 (UniProt Q53EL6): the log2 fold change was inactive: -0.022.

Consider PELO (UniProt Q9BRX2), for which the log2 fold change was inactive: -0.039.

For the target PEA15 isoform 2 (UniProt Q15121), the log2 fold change was inactive: 0.075.
